Measured values as given in US11896843B2, “Photodynamic therapy devices, systems and methods” (NATIONAL UNIVERSITY OF SINGAPORE, priority 2018, dated 2024).
At least one structure is not confirmed: it was looked up by name or label, or the drawing left a doubt.

Test system: ROS production
Assay: ROS production in vitro under direct LED illumination of other photosensitizers
Conditions: compared with Ce6
Text: The system can be adapted for use with other photosensitizers.

## C=CC1=C(C)c2cc3[nH]c(cc4nc(cc5[nH]c(cc1n2)c(C)c5CCC(=O)O)C(CCC(=O)O)=C4C)c(C)c3C=C [protoporphyrin IX]
  levels of ROS in vitro (normalized fluorescence): comparable levels of ROS
